PubChem BioAssay AID1259271 – Sanger Institute | 2017
Assay: 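Follow-up check of kinase genes for lethal pairing with a drug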 (follow-up of hits). System: RKO colorectal cancer cells. Reagent: single siRNA against human genes. Conditions: anchor drug added to each siRNA well, cetuximab 5 µg/ml, trametinib 10 nM or BYL719 1 µM, compared with DMSO vehicle; exposure length not given. Measured: 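Survival of cells relative to control pool 2 (non-targeting), replicate average, plus a synergy score for each anchor drug (trametinib 10 nM, cetuximab 5 µg/ml, BYL719 1 µM) compared with DMSO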. Scale: synergy score with BYL719 and synergy score with cetuximab and synergy score with trametinib: higher = stronger synthetic lethality with the drug. Call rule: 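Any anchor drug giving synergy above 0.10 makes the siRNA a hit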. Meaning of the calls: active = synergy with at least one drug; inactive = no synergy with any drug.
In all, the deposit lists 160 reagents; this is an unselected part. 124 of them (78%) count as active. 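Each row is one of four siRNAs per gene; gene-level confirmation, requiring two siRNAs in several cell lines, is not included.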 Unmarked entries are inactive. Reagents against one gene are numbered here. Not all columns of the deposit are shown. No sequences are given here. Not given: the amount of reagent, the time to read-out.

no.	Target gene	reagent	synergy score with BYL719	synergy score with cetuximab	synergy score with trametinib
1	MAPKAPK2 (GeneID 9261)	1	0.0543 (active)	0.133	0.153
2	MAPKAPK2 (GeneID 9261)	2	0.0926 (active)	0.245	0.0515
3	MAPKAPK2 (GeneID 9261)	3	0.0582 (active)	0.105	0.0461
4	MAPKAPK2 (GeneID 9261)	4	0.0995 (active)	0.103	0.0296
5	COASY (GeneID 80347)	1	0.308 (active)	0.336	0.271
6	COASY (GeneID 80347)	2	0.269 (active)	0.115	0.285
7	COASY (GeneID 80347)	3	0.0685 (active)	0.114	0.114
8	COASY (GeneID 80347)	4	0.0178 (active)	0.167	0.257
9	CDK6 (GeneID 1021)	1	-0.0841 (active)	0.156	0.19
10	CDK6 (GeneID 1021)	2	-0.0256 (active)	0.0958	0.261
11	CDK6 (GeneID 1021)	3	0.0184 (active)	-0.0323	0.151
12	CDK6 (GeneID 1021)	4	-0.0782 (active)	0.102	0.0992
13	IKBKB (GeneID 3551)	1	0.0484 (active)	0.18	0.133
14	IKBKB (GeneID 3551)	2	0.0708 (active)	0.32	0.167
15	IKBKB (GeneID 3551)	3	-0.0678	-0.0746	-0.0332
16	IKBKB (GeneID 3551)	4	0 (active)	-0.0503	0.197
17	CAMK2N1 (GeneID 55450)	1	-0.0835	-0.0396	0.0823
18	CAMK2N1 (GeneID 55450)	2	0.0505	0.0435	-0.124
19	CAMK2N1 (GeneID 55450)	3	0.0402 (active)	0.0514	0.243
20	CAMK2N1 (GeneID 55450)	4	-0.15	-0.0125	0.0191

Single entries from the entries so far.
For “synergy score with BYL719”, IKBKB (GeneID 3551) #4 shows 0 (active)
Entry for IKBKB (GeneID 3551) #2 in “synergy score with cetuximab”: 0.32 (active)
